Values quoted from earlier work in patent US20050065213A1, “Combretastatin a-4 derivatives having antineoplastic activity” (priority 2001, published 2005).

Tested on: P388 murine leukaemia cell line
Conditions: cell growth inhibition; cited from earlier work

For `COc1ccc(/C=C\c2cc(OC)c(OC)c(OC)c2)cc1O` [combretastatin A-4, cis-combretastatin A-4], the IC50 is given as 2.6 nM.
